The record followed here is patent US20170052184A1.

In the assay the target is HCV p21 core protein (mature core) (Hepatitis C virus). In words: Western blot screening of hybridoma supernatants and ascites. (Immunoblotting shows a protein as a band on a membrane.)

Results are given in words; binding and its absence hold for the method and conditions named. A result given as binding can be weak or reduced; the word gives no strength.

B1: Neo4 monoclonal antibody (antibody, V domains shown)
VH: QIQLKESGPAVIKPSQSLSLTCIVSGFSITSSVYCWQWIRQPPGKGLEWMGRICYDGSVDYSPSITSRGTISRDTSLNKVFFQLSSVTNEDTAMYYCSRENHIDYYDTTYPSFDVWGAGTTVTVSS
VL: DIVLTQSPASLIVSLGQRATISCRASKSVNEYGYTYMHWYQQKPGLPPKLLIYLASNLDSGVPARFSGSGSGTDFTLNIHPVEEEDAATYYCQHSRELPYTFGGGTKLEIKR
B1: the binding entry is given as “binds”.
